The target of data set [1] is T1, EIN_066100 (MAK16 homolog) (Entamoeba invadens (IP-1)) (UniProt A0A0A1TXQ0).
T1 sequence (looked up, limits assumed): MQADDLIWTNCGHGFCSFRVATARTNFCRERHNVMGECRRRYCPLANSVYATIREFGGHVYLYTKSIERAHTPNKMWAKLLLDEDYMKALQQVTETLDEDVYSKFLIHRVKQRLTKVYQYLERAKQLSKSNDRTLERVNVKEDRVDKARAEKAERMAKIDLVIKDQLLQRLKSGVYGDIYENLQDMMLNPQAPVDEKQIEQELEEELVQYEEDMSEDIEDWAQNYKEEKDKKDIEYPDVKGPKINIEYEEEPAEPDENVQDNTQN
As to the kind of experiment: EMSA supershift. To be noted: anti-Myc supershift, stronger than for EIN_085620, anti-actin gave none, poly(dI-dC); 20 uL with 2 uL 10x EMSA buffer (10 mM Tris-HCl pH 7.9, 50 mM NaCl, 1 mM EDTA, 3% glycerol, 0.05% BSA), 6 ug nuclear extract, 1 ug/uL poly(dI-dC), 50 fmol probe; protein in an extract; protein details: Myc; label: radiolabeled. A general note: A gel shift assay detects complexes by their altered migration in electrophoresis.

The subject of data set [2] is EIN_085620 (Esf2 homolog, RRM protein) (Entamoeba invadens (IP-1)). Put plainly: EMSA supershift. The conditions noted are these: anti-Myc supershift, less strong than for EIN_066100, anti-actin gave none, poly(dI-dC); 20 uL with 2 uL 10x EMSA buffer (10 mM Tris-HCl pH 7.9, 50 mM NaCl, 1 mM EDTA, 3% glycerol, 0.05% BSA), 6 ug nuclear extract, 1 ug/uL poly(dI-dC), 50 fmol probe; protein in an extract; protein details: Myc; label: radiolabeled.

Construct, isoform or probe ends are uncertain for at least one entry. At least one result comes from cells or an extract, where the contact may be indirect. For some assays here: Tags and fusion partners may be left off the protein sequences shown.

As to “ACGTCAGTTTTTTCACTTTCTTTTCAGT / ACGTACTGAAAAGAAAGTGAAAAAACTG [M9 WT probe]”, the binding result in data set [1] and in data set [2] was “binds” throughout.

Source of the values: article PMC11633172.
